Data on one molecule can be found in patent publication US8158172B2, “Fermented food products containing probiotics strains, and method for preparing same” (Compagnie Gervais Danone, priority 2006, dated 2012).

A short description of the data set: Sensory analysis for undesirable sulphur-type taste.

Consider `N[C@@H](CS)C(=O)O` [cysteine, L-cysteine], for which the organoleptic response result (12 mg/l of cysteine) is reported as “no detectable difference”. Moreover, the “sensory analysis, undesirable taste in comparison with the standard” value (15 mg/l of filtered cysteine) was “do not have a detectable undesirable taste”. Further, the “added cysteine concentration as from which an undesirable taste (sulphur note) can be detected” value (milk models of Example 2) was at least 0.002%.
